The values below come from publication PMC12120245.

Chains of the proteins cited; added tags and fusions are not shown. Lines headed by an entry give the natural chain unless they say otherwise; changes in a name come on top.
UniProt Q15652: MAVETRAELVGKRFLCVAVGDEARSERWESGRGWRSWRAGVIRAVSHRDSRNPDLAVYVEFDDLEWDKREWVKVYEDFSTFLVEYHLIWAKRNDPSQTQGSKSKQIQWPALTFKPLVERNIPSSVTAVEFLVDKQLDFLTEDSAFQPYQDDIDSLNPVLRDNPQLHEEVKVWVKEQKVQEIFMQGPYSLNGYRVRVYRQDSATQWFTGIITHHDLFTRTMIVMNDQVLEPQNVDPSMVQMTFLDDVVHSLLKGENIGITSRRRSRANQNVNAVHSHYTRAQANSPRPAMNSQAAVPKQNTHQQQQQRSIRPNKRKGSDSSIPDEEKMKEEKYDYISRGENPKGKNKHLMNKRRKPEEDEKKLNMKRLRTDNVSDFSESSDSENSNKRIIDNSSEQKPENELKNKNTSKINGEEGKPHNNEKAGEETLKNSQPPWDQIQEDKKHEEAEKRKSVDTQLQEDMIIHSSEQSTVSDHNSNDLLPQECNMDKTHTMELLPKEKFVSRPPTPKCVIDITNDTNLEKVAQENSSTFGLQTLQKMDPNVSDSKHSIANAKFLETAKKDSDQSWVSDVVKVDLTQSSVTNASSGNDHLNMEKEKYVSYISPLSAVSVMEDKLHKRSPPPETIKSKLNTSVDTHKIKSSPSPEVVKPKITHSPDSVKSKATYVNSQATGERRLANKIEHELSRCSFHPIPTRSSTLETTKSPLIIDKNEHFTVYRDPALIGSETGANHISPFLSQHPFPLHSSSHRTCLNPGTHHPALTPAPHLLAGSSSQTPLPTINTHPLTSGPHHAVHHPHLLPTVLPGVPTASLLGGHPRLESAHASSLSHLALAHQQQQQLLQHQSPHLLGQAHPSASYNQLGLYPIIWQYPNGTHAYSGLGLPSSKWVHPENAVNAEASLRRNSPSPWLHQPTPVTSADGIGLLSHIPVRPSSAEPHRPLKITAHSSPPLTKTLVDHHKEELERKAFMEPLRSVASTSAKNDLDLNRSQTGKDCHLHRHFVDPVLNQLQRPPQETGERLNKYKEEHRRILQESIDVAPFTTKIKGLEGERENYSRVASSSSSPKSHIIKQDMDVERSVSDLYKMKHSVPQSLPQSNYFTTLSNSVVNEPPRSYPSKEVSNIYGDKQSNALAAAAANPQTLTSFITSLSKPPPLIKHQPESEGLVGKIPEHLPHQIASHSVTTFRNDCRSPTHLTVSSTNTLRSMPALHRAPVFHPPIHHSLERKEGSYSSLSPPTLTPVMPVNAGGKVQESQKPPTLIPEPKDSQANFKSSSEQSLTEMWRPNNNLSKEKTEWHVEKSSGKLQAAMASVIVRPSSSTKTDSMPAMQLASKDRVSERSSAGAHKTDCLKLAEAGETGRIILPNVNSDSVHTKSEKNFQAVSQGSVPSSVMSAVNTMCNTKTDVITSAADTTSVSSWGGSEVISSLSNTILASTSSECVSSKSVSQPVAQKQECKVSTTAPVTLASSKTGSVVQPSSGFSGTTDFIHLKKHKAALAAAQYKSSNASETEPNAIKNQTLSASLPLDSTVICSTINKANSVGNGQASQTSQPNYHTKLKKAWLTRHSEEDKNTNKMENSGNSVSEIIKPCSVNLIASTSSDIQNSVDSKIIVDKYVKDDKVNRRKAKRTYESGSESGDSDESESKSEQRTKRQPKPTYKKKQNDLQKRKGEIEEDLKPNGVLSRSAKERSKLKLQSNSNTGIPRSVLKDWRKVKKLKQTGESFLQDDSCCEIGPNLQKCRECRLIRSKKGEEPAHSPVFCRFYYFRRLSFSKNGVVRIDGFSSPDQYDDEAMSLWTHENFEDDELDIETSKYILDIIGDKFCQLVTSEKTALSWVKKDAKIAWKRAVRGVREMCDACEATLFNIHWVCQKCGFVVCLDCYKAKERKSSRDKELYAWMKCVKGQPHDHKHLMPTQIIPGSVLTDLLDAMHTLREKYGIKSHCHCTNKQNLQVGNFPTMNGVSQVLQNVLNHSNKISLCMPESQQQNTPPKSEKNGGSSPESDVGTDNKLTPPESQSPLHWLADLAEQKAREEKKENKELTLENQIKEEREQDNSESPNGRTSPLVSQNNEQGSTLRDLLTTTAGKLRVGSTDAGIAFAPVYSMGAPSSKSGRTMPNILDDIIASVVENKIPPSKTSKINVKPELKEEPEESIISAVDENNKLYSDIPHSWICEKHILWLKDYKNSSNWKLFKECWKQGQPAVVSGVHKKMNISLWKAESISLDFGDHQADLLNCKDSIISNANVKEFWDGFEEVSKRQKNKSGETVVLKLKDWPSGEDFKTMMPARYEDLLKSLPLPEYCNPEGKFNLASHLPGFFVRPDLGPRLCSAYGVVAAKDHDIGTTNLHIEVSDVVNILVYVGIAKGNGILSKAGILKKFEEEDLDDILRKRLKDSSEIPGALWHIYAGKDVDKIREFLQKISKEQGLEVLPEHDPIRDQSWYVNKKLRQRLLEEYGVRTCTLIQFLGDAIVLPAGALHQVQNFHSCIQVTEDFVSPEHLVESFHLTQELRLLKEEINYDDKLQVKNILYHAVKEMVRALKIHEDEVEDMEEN
UniProt Q01196: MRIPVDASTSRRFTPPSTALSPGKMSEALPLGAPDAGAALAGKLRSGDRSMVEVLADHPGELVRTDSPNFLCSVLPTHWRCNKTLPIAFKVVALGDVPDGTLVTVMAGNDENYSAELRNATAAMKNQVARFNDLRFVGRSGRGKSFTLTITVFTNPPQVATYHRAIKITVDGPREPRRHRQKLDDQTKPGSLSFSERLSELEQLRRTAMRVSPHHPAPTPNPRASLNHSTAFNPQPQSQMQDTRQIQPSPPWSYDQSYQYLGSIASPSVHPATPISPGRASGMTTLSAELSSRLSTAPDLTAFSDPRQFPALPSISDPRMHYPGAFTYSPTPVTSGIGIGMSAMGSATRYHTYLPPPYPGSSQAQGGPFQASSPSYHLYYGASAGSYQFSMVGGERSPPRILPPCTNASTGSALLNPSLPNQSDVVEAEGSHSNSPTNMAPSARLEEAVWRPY

No constants are given. Whether binding was seen depends on the method and setting. In cells and extracts the contact can be indirect. Binding calls can cover weak binding; strength is not graded here.

In experiment [1] the target is JMJD1C (Jumonji Domain Containing 1C) (human (endogenous in AML cell lines)) (UniProt Q15652). The experiment can be described thus: co-IP; JMJD1C antibody with extracts of HL-60, MOLM-13, THP-1 and Kasumi-1 cells in which flag-mCherry-RUNX1 was induced with doxycycline (1 μg/mL, 48 h); immunoblot.
The target is the same in experiment [2]. The experiment can be described thus: co-IP; JMJD1C antibody or IgG on protein A/G beads with nuclear extracts of six AML cell lines; BC300, 4°C, 4 h; washed with BC150; immunoblot. (Immunoblotting shows a protein as a band on a membrane.)

For “flag-mCherry-RUNX1 (doxycycline-inducible, in AML cells) (from UniProt Q01196 1-453)”, the binding result in experiment [1] is “binds”.
Take “RUNX1 (AML1) (from UniProt Q01196 1-453)”: in experiment [2], the binding entry was “binds”.
